Our source for the binding values is paper doi:10.1101/182626.

Results are given in words; binding and its absence hold for the method and conditions named. In cells and extracts the contact can be indirect. Some results given as binding are weak or reduced against the parent protein; the word gives no strength. Sequences can lack the tags named with a protein.

One assay deals with T1, EGFP-VPS33A (UniProt Q96AX1).
T1 sequence: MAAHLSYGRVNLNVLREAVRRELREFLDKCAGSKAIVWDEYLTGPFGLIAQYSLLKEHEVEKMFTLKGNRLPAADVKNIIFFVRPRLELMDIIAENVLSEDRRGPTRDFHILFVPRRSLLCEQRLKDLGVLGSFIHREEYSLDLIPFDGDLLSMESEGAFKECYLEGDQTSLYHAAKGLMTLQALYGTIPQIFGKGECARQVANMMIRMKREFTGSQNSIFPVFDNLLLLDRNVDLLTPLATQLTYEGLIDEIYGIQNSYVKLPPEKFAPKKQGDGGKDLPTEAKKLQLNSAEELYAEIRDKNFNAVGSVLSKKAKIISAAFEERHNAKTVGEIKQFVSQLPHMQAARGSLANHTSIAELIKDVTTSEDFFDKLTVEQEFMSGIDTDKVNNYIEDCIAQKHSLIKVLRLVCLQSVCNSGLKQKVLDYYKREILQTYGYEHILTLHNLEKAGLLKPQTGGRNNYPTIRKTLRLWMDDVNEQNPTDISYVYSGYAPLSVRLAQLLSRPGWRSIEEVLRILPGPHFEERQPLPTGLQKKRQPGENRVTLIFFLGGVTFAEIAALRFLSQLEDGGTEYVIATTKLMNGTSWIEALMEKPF
Briefly: FRET or BRET. (In general: Bioluminescence resonance energy transfer reports proximity on the nanometre scale.)

In a further assay the target is T2, EGFP-VPS33A, Q96AX1.
T2 chain: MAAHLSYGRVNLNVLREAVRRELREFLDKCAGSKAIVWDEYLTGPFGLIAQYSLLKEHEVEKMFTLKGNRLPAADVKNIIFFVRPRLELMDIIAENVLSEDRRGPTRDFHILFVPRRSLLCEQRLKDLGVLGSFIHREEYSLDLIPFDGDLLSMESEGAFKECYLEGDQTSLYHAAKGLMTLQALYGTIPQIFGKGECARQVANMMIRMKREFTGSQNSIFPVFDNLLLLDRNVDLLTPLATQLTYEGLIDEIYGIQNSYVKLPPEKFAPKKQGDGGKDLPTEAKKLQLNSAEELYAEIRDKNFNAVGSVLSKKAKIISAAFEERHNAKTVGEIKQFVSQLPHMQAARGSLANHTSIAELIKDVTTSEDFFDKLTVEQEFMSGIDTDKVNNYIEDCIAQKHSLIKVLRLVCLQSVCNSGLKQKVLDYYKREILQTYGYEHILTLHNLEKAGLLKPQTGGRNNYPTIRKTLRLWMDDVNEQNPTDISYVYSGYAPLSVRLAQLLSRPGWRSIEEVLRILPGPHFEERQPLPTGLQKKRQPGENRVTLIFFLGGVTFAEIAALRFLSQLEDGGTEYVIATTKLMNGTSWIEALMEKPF
The assay is described as follows: FRET or BRET. The settings on record: remark: other sources report otherwise.

Regarding “mCherry-Stx17[ED3-6K] charge mutant (from UniProt P56962 1-302)”, the binding result with EGFP-VPS33A was “no binding”.
Same read-out and setting: as for “mCherry-Stx17[S2E] phosphomimetic mutant (from UniProt P56962 1-302)”, the entry is “binds”.

B1: mCherry-Stx17[S2A] phosphonull mutant, P56962 1-302 (protein)
chain: MAEDEEKVKLRRLEPAIQKFIKIVIPTDLERLRKHQINIEKYQRCRIWDKLHEEHINAGRTVQQLRSNIREIEKLCLKVRKDDLVLLKRMIDPVKEEASAATAEFLQLHLESVEELKKQFNDEETLLQPPLTRSMTVGGAFHTTEAEASSQSLTQIYALPEIPQDQNAAESWETLEADLIELSQLVTDFSLLVNSQQEKIDSIADHVNSAAVNVEEGTKNLGKAAKYKLAALPVAGALIGGMVGGPIGLLAGFKVAGIAAALGGGVLGFTGGKLIQRKKQKMMEKLTSSCPDLPSQTDKKCS
With B1, the binding result with EGFP-VPS33A, Q96AX1 was “no binding”.
